PubChem BioAssay AID2728 (Broad Institute, 2010)
Inconclusive results, whose numbers are uncertain, are shown with a selection of clear calls. Active and inactive are the calls of the source.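 Rule for the calls: active = every replicate shows growth inhibition above 50%; inconclusive = at least half but not all replicates above 50% inhibition; inactive = under half of replicates above 50% inhibition.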

test: growth inhibition of V. harveyi BB721, confirmation, cytotoxicity control for AI-2 quorum sensing inhibitors, strain BB721, absorbance OD600 (AID 2728); details: Vibrio harveyi BB721 growth, 9 h, at 7.5 µM, stronger effect = higher value

Row | SMILES | growth inhibition
1 | O=C(NCc1ccc(Cl)cc1)c1cc2ccccn2n1 | inactive: 25.4%
2 | CCc1ccc(CN(C)C(=O)c2cc(COc3cccc(C(F)(F)F)c3)on2)nc1 | inconclusive: 72.1%
3 | Cc1nc2ccccc2cc1OCc1ccccc1 | inconclusive: 40.9%
4 | O=C(Nc1ccccc1F)C1CC1c1ccccc1 (configuration not stated) | inactive: -26.7%
5 | O=C(O)c1ccc(NCc2cccc(Br)c2)cc1 | inconclusive: 52.5%
6 | O=S(=O)(Nc1cccc(Oc2ccc(Cl)cc2)n1)c1ccc(F)cc1 | inconclusive: 56.7%
7 | O=C(c1ccc(COc2ccc(Cl)cc2)o1)N1CCN(Cc2ccc3c(c2)OCO3)CC1 | active: 111%
8 | Cc1cccc(-n2nnc(C(=O)N3CCc4ccccc4C3)c2N)c1 | inconclusive: 58.6%
9 | COc1ccc(-c2noc(CCc3ccccc3)n2)cc1 | inactive: -27.3%
10 | N#Cc1nc(-c2cccs2)oc1NCc1ccc(Cl)cc1 | active: 102%
11 | Nn1c(SCC(=O)Nc2ccc(OC(F)F)cc2)nnc(Cc2ccccc2)c1=O | inconclusive: 64.6%
12 | COc1ccc(Oc2cn[nH]c2-c2ccc(O)cc2O)cc1 | inconclusive: 53.9%
13 | COC(=O)/C(=C1/Oc2cc(C)oc(=O)c2S1)C(F)(F)F | active: 63%
14 | CC(C)(C)c1ccc(/C=N/NC(=O)C2CCCC2)cc1 | inconclusive: 52.5%
15 | Cc1ccc(Cc2cnc(NC(=O)c3ccco3)s2)cc1 | inconclusive: 42.1%
16 | COc1cccc(Oc2cn[nH]c2-c2ccc(O)cc2O)c1 | inconclusive: 31.6%
17 | CC(Oc1ccccc1)C(=O)Nc1ccc(S(=O)(=O)NCC2CCCO2)cc1 (configuration not stated) | inactive: -18%

Nos. 11–14, quoted:
Row | SMILES | growth inhibition
11 | Nn1c(SCC(=O)Nc2ccc(OC(F)F)cc2)nnc(Cc2ccccc2)c1=O | inconclusive: 64.6%
12 | COc1ccc(Oc2cn[nH]c2-c2ccc(O)cc2O)cc1 | inconclusive: 53.9%
13 | COC(=O)/C(=C1/Oc2cc(C)oc(=O)c2S1)C(F)(F)F | active: 63%
14 | CC(C)(C)c1ccc(/C=N/NC(=O)C2CCCC2)cc1 | inconclusive: 52.5%
